Test results taken from PubChem BioAssay AID194 (DTP/NCI, 2004).
The list is a part of this screen's results and no random one: it is rich in T/C values a quarter to a half above the control, in often repeated tests (any T/C) and in doses without a T/C. Other doses and runs of a compound stand elsewhere. T/C gives the treated animals as a percentage of the vehicle group. Some entries give survivors of the animals treated and no T/C: the source holds a T/C of zero for them, seemingly a mark for toxic or unscored doses. Some survivor counts are full or nearly so, which does not show that the dose was tolerated: the source hardly ever lists a survival T/C far under the control, and the zero likely stands for such cases as well. Survivors were counted at the toxicity check, usually on the fifth day, unless a day is given; later deaths do not show. Schedules are NCI's codes, taken here to give the interval after Q, in days (D) or hours (H), and the number of doses after X. Some entries were tested several times; the results are listed from low to high. Where survival is the endpoint, this PubChem deposit counts one and a half times the control or more as active, and values a quarter to a half above the control carry no call in these data; other NCI protocols may use other cut-offs. Some T/C values carry the count of animals alive at the toxicity check (mostly the fifth day); where none is given, no animal had died by that day.

System: BDF1 mice, B16 melanoma s.c., survival/tumor T/C
Test: NCI In Vivo Anticancer Drug Screen. Data for tumor model B16 Melanoma (subcutaneous) in B6D2F1 (BDF1) mice
Experimental: The antitumor activity of compounds was measured in mice bearing transplantable tumors. Survival or tumor size were measured and the results are expressed as the measurement made in the treated group (T) divided by the measurement made in the vehicle treated control group (C). The tumor model used in this assay is B16 Melanoma (subcutaneous) in B6D2F1 (BDF1) mice

[1] = T/C endpoint: median survival time, dose: 32.0 mg/kg/injection, schedule: Q01DX009 (ip), vehicle: Klucel (hydroxypropylcellulose) (HPC), higher T/C = longer survival
[2] = T/C endpoint: median survival time, dose: 25.0 mg/kg/injection, schedule: Q01DX009 (ip), vehicle: Klucel (hydroxypropylcellulose) (HPC), higher T/C = longer survival
[3] = T/C endpoint: median survival time, dose: 50.0 mg/kg/injection, schedule: Q01DX009 (ip), vehicle: Klucel (hydroxypropylcellulose) (HPC), higher T/C = longer survival

CCCCS(=O)CC(CO)NC(=O)/C=C/c1c(C)[nH]c(=O)[nH]c1=O (stereo not given)
T/C (T/C endpoint: median survival time, dose: 2.5 mg/kg/injection, schedule: Q01DX009 (ip), vehicle: water, higher T/C = longer survival): 139 % of control [9 of 10 alive] | survivor count (T/C endpoint: median survival time, dose: 20.0 mg/kg/injection, schedule: Q01DX009 (ip), vehicle: water, higher T/C = longer survival): 4 of 10

CC1=C(/C=C/C(C)=C/C=C/C(C)=C/C(=O)O)C(C)(C)CCC1
survivor count (T/C endpoint: median survival time, dose: 8.0 mg/kg/injection, schedule: Q01DX009 (ip), vehicle: saline with Tween-80, higher T/C = longer survival): 10 of 10 | survivor count (T/C endpoint: median survival time, dose: 16.0 mg/kg/injection, schedule: Q01DX009 (ip), vehicle: saline with Tween-80, higher T/C = longer survival): 10 of 10 | survivor count (T/C endpoint: median survival time, dose: 32.0 mg/kg/injection, schedule: Q01DX009 (ip), vehicle: saline with Tween-80, higher T/C = longer survival): 10 of 10 | survivor count (T/C endpoint: median survival time, dose: 64.0 mg/kg/injection, schedule: Q01DX009 (ip), vehicle: saline with Tween-80, higher T/C = longer survival): 10 of 10 | survivor count (T/C endpoint: median survival time, dose: 128.0 mg/kg/injection, schedule: Q01DX009 (ip), vehicle: saline with Tween-80, higher T/C = longer survival): 10 of 10

FC(F)(F)c1nc2nc(Cl)c(Cl)nc2[nH]1
T/C (T/C endpoint: median survival time, dose: 32.0 mg/kg/injection, schedule: Q01DX009 (ip), vehicle: saline, higher T/C = longer survival): 133 % of control | survivor count (T/C endpoint: median survival time, dose: 64.0 mg/kg/injection, schedule: Q01DX009 (ip), vehicle: saline, higher T/C = longer survival): 7 of 8 | survivor count (T/C endpoint: median survival time, dose: 128.0 mg/kg/injection, schedule: Q01DX009 (ip), vehicle: saline, higher T/C = longer survival): 0 of 8

Cc1c(N)nc(C(CC(N)=O)NCC(N)C(N)=O)nc1C(=O)NC(C(=O)NC(C)C(O)C(C)C(=O)NC(C(=O)NCCc1nc(-c2nc(C(=O)NCCCNCCCCN)cs2)cs1)C(C)O)C(OC1OC(CO)C(O)C(O)C1OC1OC(CO)C(O)C(OC(N)=O)C1O)c1cnc[nH]1 (stereo not given)
T/C (T/C endpoint: median survival time, dose: 3.12 mg/kg/injection, schedule: Q01DX009 (ip), vehicle: water, higher T/C = longer survival): 143 % of control | T/C (T/C endpoint: median survival time, dose: 6.25 mg/kg/injection, schedule: Q01DX009 (ip), vehicle: water, higher T/C = longer survival): 144 % of control | T/C (T/C endpoint: median survival time, dose: 12.5 mg/kg/injection, schedule: Q01DX009 (ip), vehicle: water, higher T/C = longer survival): 148 % of control | T/C (T/C endpoint: median survival time, dose: 25.0 mg/kg/injection, schedule: Q01DX009 (ip), vehicle: water, higher T/C = longer survival): 127 % of control [9 of 10 alive]

Cc1cc2oc(=O)c3c(c2c(O)c1CN1CCN(C)CC1)CCCC3
T/C [1]: 128 % of control | survivor count (T/C endpoint: median survival time, dose: 256.0 mg/kg/injection, schedule: Q01DX009 (ip), vehicle: Klucel (hydroxypropylcellulose) (HPC), higher T/C = longer survival): 3 of 5

CC1(C)N=C(N)N=C(N)N1c1ccc(CCCCc2ccc(S(=O)(=O)F)cc2Cl)c(Cl)c1
T/C (T/C endpoint: median survival time, dose: 3.13 mg/kg/injection, schedule: Q01DX009 (ip), vehicle: saline, higher T/C = longer survival): 127 % of control | T/C (T/C endpoint: median survival time, dose: 9.4 mg/kg/injection, schedule: Q04DX003 (ip), vehicle: saline, higher T/C = longer survival): 128 % of control | survivor count (T/C endpoint: median survival time, dose: 50.0 mg/kg/injection, schedule: Q01DX009 (ip), vehicle: saline, higher T/C = longer survival): 6 of 6

O=C(O)CCCc1ccc(N(CCCl)CCCl)cc1
survivor count (T/C endpoint: median survival time, dose: 16.0 mg/kg/injection, schedule: Q01DX009 (ip), vehicle: Klucel (hydroxypropylcellulose) (HPC), higher T/C = longer survival): 7 of 10 | survivor count (T/C endpoint: median survival time, dose: 24.0 mg/kg/injection, schedule: Q01DX009 (ip), vehicle: Klucel (hydroxypropylcellulose) (HPC), higher T/C = longer survival): 6 of 10 | survivor count [1]: 0 of 10 | survivor count (T/C endpoint: median survival time, dose: 48.0 mg/kg/injection, schedule: Q01DX009 (ip), vehicle: Klucel (hydroxypropylcellulose) (HPC), higher T/C = longer survival): 0 of 10

CC1=CCC(C(C)C)C=C1 (stereo not given)
survivor count [2]: 10 of 10 | survivor count [3]: 10 of 10

S=c1nc[nH]c2nc[nH]c12
survivor count (T/C endpoint: median survival time, dose: 12.5 mg/kg/injection, schedule: Q01DX009 (ip), vehicle: Klucel (hydroxypropylcellulose) (HPC), higher T/C = longer survival): 5 of 6 | T/C [2]: 114, 128, 147, 169 % of control | survivor count [2]: 5 of 6 and 6 of 6 | T/C [3]: 98, 110, 114 % of control | survivor count [3]: 6 of 6 | survivor count (T/C endpoint: median survival time, dose: 100.0 mg/kg/injection, schedule: Q01DX009 (ip), vehicle: Klucel (hydroxypropylcellulose) (HPC), higher T/C = longer survival): 6 of 6 | survivor count (T/C endpoint: median survival time, dose: 200.0 mg/kg/injection, schedule: Q01DX009 (ip), vehicle: Klucel (hydroxypropylcellulose) (HPC), higher T/C = longer survival): 6 of 6 | survivor count (T/C endpoint: median survival time, dose: 200.0 mg/kg/injection, schedule: Q01DX009 (ip), vehicle: saline with Tween-80, higher T/C = longer survival): 6 of 6 | survivor count (T/C endpoint: median tumor weight (est.), dose: 100.0 mg/kg/injection, schedule: Q01DX009 (ip), vehicle: Klucel (hydroxypropylcellulose) (HPC), higher T/C = larger tumour): 3 of 6 | survivor count (T/C endpoint: median tumor weight (est.), dose: 100.0 mg/kg/injection, schedule: Q01DX009 (ip), vehicle: saline with Tween-80, higher T/C = larger tumour): 2 of 6
